Consider 107 compounds from PubChem BioAssay AID694 (Emory University Molecular Libraries Screening Center, 2007).

By UniProt entry, the sequences of proteins in these tests, tags left out.
UniProt P03372, whole entry, looked up: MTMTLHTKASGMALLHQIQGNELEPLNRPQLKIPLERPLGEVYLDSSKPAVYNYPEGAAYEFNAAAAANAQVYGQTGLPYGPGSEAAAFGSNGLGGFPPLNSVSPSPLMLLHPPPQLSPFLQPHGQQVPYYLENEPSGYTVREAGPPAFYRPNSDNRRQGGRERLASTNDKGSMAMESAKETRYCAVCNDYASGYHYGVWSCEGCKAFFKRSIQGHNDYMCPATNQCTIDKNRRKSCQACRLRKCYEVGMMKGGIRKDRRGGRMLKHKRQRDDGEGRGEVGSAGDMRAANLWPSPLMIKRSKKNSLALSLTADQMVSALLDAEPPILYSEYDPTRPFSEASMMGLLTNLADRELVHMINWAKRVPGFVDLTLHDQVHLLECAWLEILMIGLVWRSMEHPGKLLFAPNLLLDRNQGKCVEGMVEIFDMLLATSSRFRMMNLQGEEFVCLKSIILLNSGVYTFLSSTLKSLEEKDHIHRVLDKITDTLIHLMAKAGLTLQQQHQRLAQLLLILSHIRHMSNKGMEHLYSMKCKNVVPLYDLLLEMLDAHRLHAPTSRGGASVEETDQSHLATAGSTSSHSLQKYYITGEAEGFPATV

Values joined by “and” are separate entries in the source; they are usually repeats but may differ in a detail not shown here. Equal values may be shown once. The list shows a part of the results. These are further read-outs of the screen, such as a control signal, another cell line or another target. No call is given for them.

One may read the inhibition as the change of the read-out against control, counted positive when it falls.

The target in this experiment is Estrogen receptor (Homo sapiens) (UniProt P03372). The experiment in a line: ERα coactivator peptide binding inhibitors, primary screen, biochemical, LOPAC library, TR-FRET (AID 694).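 Note: receptor was agonist-bound with estradiol present during the assay.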 As to conditions: TR-FRET ERalpha-coactivator peptide binding, at 15 µM, stronger effect = higher value. (In TR-FRET formats the signal depends on donor and acceptor labels being close together.)
As for `COc1ccc2c(c1)[C@@]13CCCC[C@H]1[C@@H](C2)NCC3`, the inhibition worked out at 1.72%. In the case of `CC(C)[C@@]1(NC(=O)[C@@H]2C=C3c4cccc5[nH]cc(c45)C[C@H]3N(C)C2)O[C@@]2(O)[C@@H]3CCCN3C(=O)[C@H](Cc3ccccc3)N2C1=O` it was 4.96%. On to `C[C@@H]1O[C@@H](O[C@H]2C[C@@H](O)[C@]3(CO)[C@@H]4C(CC[C@]3(O)C2)[C@@]2(O)CC[C@H](C3COC(=O)C3)[C@@]2(C)C[C@H]4O)[C@H](O)[C@H](O)[C@H]1O` (some centres not stated), for which the inhibition was 6.85%. For the compound `C/C=C(/C)C(=O)O[C@H]1C(C)=C2[C@H]([C@@H]1OC(=O)CCCCCCC)[C@@](C)(OC(C)=O)C[C@H](OC(=O)CCC)[C@@]1(O)[C@H]2OC(=O)[C@@]1(C)O`, the inhibition came out at 5.75%. With `CCCN(CCC)[C@H]1CCc2c(F)ccc(O)c2C1`, the inhibition was found to be 6.93%. In the case of `CCCC[N+]1(C)C2CC(OC(=O)[C@H](CO)c3ccccc3)CC1C1OC12` (some centres not stated) it was 7.8%. For `c1ccc2c(c1)OCC(C1=NCCN1)O2` (configuration not stated), the inhibition was determined as 4.53%. As for `O=C(O)c1nn(Cc2ccc(Cl)cc2Cl)c2ccccc12`, the figure is 6.7%; as for `CC(C)(C)c1cc(C=C(C#N)C#N)cc(C(C)(C)C)c1O`, 0.27%; as for `NC(N)=Nc1ccc2[nH]c3c(c2c1)C[C@@]1(O)[C@H]2Cc4ccc(O)c5c4[C@@]1(CCN2CC1CC1)[C@H]3O5`, 5.08%. For the compound `CCOC(=O)c1ncn2c1[C@@H]1CCCN1C(=O)c1cc(OC)ccc1-2`, the inhibition is -1.26%. Consider `CCC1(C2=NCCN2)Cc2ccccc2O1` (configuration not stated), for which the inhibition worked out at 2.56%. In the case of `NC(CCP(=O)(O)O)C(=O)O` (configuration not stated), the inhibition was -8.63%. In the case of `COc1ccc2c(c1O)-c1cccc3c1[C@@H](C2)N(C)CC3` it was -0.06%; in that of `C[N+]1(C)CCc2cc3c(cc2[C@H]1[C@@H]1OC(=O)c2c1ccc1c2OCO1)OCO3`, -4.51%. In the case of `O=c1[nH]oc2c1CCNC2` it was 0.3%; in that of `COc1cc(C(O)CN)ccc1O` (configuration not stated), 1.94%; in that of `CC(C)Oc1cccnc1N(C)C1CCN(Cc2ccccc2)CC1`, 5.57%.

For `COC[C@H]1OC(=O)c2coc3c2[C@@]1(C)C1=C(C3=O)C2CCC(=O)[C@@]2(C)C[C@H]1OC(C)=O` (some centres not stated), the inhibition was 1.52%. Regarding `O=C(CCCN1CCC2(CC1)C(=O)NCN2c1ccccc1)c1ccc(F)cc1`, the inhibition came out at 4.27%. In the case of `C=CCN1CC[C@]23c4c5ccc(O)c4O[C@@H]2/C(=N/N=C2\CC[C@@]4(O)C6Cc7ccc(O)c8c7[C@@]4(CCN6CC=C)[C@@H]2O8)CC[C@@]3(O)C1C5`, the inhibition was 0.72%. In the case of `CN1C2CCC1CC(OC(c1ccccc1)c1ccc(Cl)cc1)C2` (configuration not stated) it was -4.18%; in that of `CCCn1c(=O)c2[nH]c(C3CCCC3)nc2n(CCCOC(=O)c2ccc(S(=O)(=O)F)cc2)c1=O`, -5.9%. In the case of `CCCCCCC(C)(C)c1ccc([C@@H]2C[C@H](O)CC[C@H]2CCCO)c(O)c1`, the inhibition turned out to be 0%. As for `COc1cc(CC(C)N)c(OC)cc1I` (configuration not stated), the figure is 7.38%; as for `Cc1sc2ccccc2c1CC1=NCCN1`, -1.03%. Consider `C[N+](C)(C)CCOC(=O)CBr`, for which the inhibition was -3.78%.

For the compound `CCCN(CCC)C(=O)Cc1c(-c2ccc(Cl)cc2)nc2c(Cl)cc(Cl)cn12`, the inhibition stood at 2.19%. In the case of `CCCN(CCC)[C@@H]1CCc2c(F)ccc(O)c2C1` it was 5.68%; in that of `NNCc1cccc(O)c1`, -3.13%.

Consider `NC(CP(=O)(O)O)C(=O)O` (configuration not stated), for which the inhibition is -7.11%. Turning to `CN1CCc2cc(O)cc3c2[C@H]1Cc1ccc(O)c(O)c1-3`, the inhibition amounted to 13.8%. Turning to `C[Se]C[C@H](N)C(=O)O`, the inhibition came out at 0.64%. In the case of `CCCN1CCC[C@@H](c2cccc(C#N)c2)C1` it was -1.43%; in that of `COC(=O)N1CCN(C(=O)Cc2ccc(Cl)c(Cl)c2)C(CN2CCCC2)C1` (configuration not stated), 0.99%. `NCC#Cc1ccccc1`: the inhibition was -1.26%. On to `COc1ccc2[nH]cc(CCN(C)C)c2c1`, for which the inhibition was -5.83%. In the case of `C[N+]1(C)C2CC(OC(=O)[C@H](CO)c3ccccc3)CC1C1OC12` (some centres not stated) it was -3.05% and 2.99%; in that of `CC(C)NC(C)Cc1ccc(I)cc1` (configuration not stated), 15.3%; in that of `O=c1c2ccccc2[se]n1-c1ccccc1`, 3.15%. `CCCN(CCC)C1Cc2cc(OC)c(OC)cc2C1`: the inhibition is -0.45%. With `C[N+]1(C)C2CCC1CC(OC(=O)C(CO)c1ccccc1)C2` (configuration not stated), the inhibition is -3.36% and -5.87%.

With `S=C=Nc1cccc(C2(N3CCCCC3)CCCCC2)c1`, the inhibition amounted to 1.91%. For `CC12NC(Cc3ccccc31)c1ccccc12` (configuration not stated), the inhibition is -2.5%. As to `CN[C@@H](C)[C@H](O)c1ccccc1`, the inhibition worked out at 4.61%. As for `CN1CCc2cccc(Cl)c2CC1`, the inhibition was -4.25%. On to `NC(CCCCCP(=O)(O)O)C(=O)O` (configuration not stated), for which the inhibition was -6.11%. For the compound `NC(=O)c1cc(N2CC2)c([N+](=O)[O-])cc1[N+](=O)[O-]`, the inhibition is -4.25%. For the compound `CP(=O)(O)C1=CCNCC1`, the inhibition came to 3.24%.

Turning to `C[C@@H]1O[C@H](C[N+](C)(C)C)C[C@H]1O`, the inhibition was 2.5%. With `N#CC(C#N)=Cc1ccc(O)c(O)c1`, the inhibition was determined as 16%.

With `COc1ccc2[nH]c3c(c2c1)CCNC3`, the inhibition was -6.99%. In the case of `NC(=O)CI` it was -0.5%. With `CCN(CCCl)Cc1ccccc1Br`, the inhibition is -3.72%. Turning to `CCN(CC)C(=O)N[C@@H]1C=C2c3cccc4[nH]cc(c34)C[C@H]2N(C)C1`, the inhibition was 3.2%. As for `CNC(=O)OCC[N+](C)(C)C`, the inhibition came to 4.41%. `CC(N)C(=O)OC(C)(C)Cc1ccc(Cl)cc1` (configuration not stated): the inhibition was -1.43%.

Consider `Oc1ccc2c3c1O[C@H]1c4oc5ccccc5c4C[C@@]4(O)C(C2)N(CC2CC2)CCC314` (some centres not stated), for which the inhibition is 1.58%. In the case of `CP(=O)(O)CCCN` it was -7.67%; in that of `C#CCOC(=O)C1=CCCN(C)C1`, -4.44%. As to `O=C(Cc1ccc(Cl)c(Cl)c1)N1CCCCC1CN1CCCC1` (configuration not stated), the inhibition stood at 2.73%. On to `CNCC(O)c1ccc(O)cc1` (configuration not stated), for which the inhibition turned out to be 8.11%. On to `CCCn1c(C)c(C(=O)c2ccc3ccccc3c2)c2ccccc21`, for which the inhibition is -0.17%. Regarding `O=C(OC1CCN(CCCl)CC1)C(c1ccccc1)c1ccccc1`, the inhibition was -6.69%. Take `c1ccc(CCCN2CCN(CCOC(c3ccccc3)c3ccccc3)CC2)cc1`: the inhibition was 2.14%. As to `c1ccc(C2CC2)c(OCC2=NCCN2)c1`, the inhibition was determined as 0.43%. For the compound `NCC(CP(=O)(O)O)c1ccc(Cl)cc1` (configuration not stated), the inhibition turned out to be 1.97%. As to `N#CC(C#N)=Cc1ccc([N+](=O)[O-])c(O)c1`, the inhibition was 10.5%.

For the compound `O=S1(=O)N(CCN2CC=C(c3c[nH]c4cc(F)ccc34)CC2)c2cccc3c2N1CCC3`, the inhibition is -1.49%. In the case of `CCn1cnc2c(Nc3cccc(Cl)c3)nc(N[C@@H]3CCCC[C@@H]3N)nc21` it was 1.14%. In the case of `CN1CCN(c2ccc3ccccc3n2)CC1`, the inhibition was determined as 2.37%. As for `CCCCCCCCC(=O)NCc1ccc(O)c(OC)c1`, the inhibition is -5.85%. Consider `NCCc1c[nH]c2ccc(C(N)=O)cc12`, for which the inhibition was -0.7%. As for `Nc1ccc(CCN2CCN(c3cccc(C(F)(F)F)c3)CC2)cc1`, the figure is -7.56%; as for `CC(=O)NCCc1c[nH]c2ccccc12`, 2.72%. As to `NC(C(=O)O)c1cc(=O)[nH]o1` (configuration not stated), the inhibition amounted to 1.08%. In the case of `O=c1[nH]c2ccccc2n1C1CCN(CCCC(c2ccc(F)cc2)c2ccc(F)cc2)CC1`, the inhibition was 3.71%. With `CCCN1CC[C@@H]2c3cc(O)ccc3CC[C@@H]21`, the inhibition is 4.38% and -0.24%.

As to `CC(N)c1cccc(Cl)c1Cl` (configuration not stated), the inhibition is -1.52%. As for `C=CCN1CCC2(C)c3cc(O)ccc3CC1[C@@H]2C` (some centres not stated), the inhibition is -7.99%.

Take `CCc1c(C(=O)OC)ncc2[nH]c3cc(OC)c(OC)cc3c12`: the inhibition worked out at 2.41%. For the compound `CCCCC/C=C\C/C=C\C/C=C\C/C=C\CCCC(=O)NCC(=O)O`, the inhibition was found to be 19.1%. As for `CCCC(C)(COC(N)=O)COC(=O)NC(C)C` (configuration not stated), the figure is 0.13%; as for `Oc1ccc2c3c1O[C@H]1[C@@H](O)CC[C@@]4(O)C(C2)N(CC2CCC2)CCC314` (some centres not stated), 1.6%; as for `C/C(O)=C(\C#N)C(=O)Nc1cc(Br)ccc1Br`, -2.99%. Turning to `COc1ccc2c3c1O[C@H]1C(=O)CC[C@@]4(O)C(C2)N(CC2CC2)CCC314` (some centres not stated), the inhibition is -5.95%. In the case of `NC1CCc2cc(O)c(O)cc2C1` (configuration not stated) it was -0.12%. With `C[C@]12CCC(=O)C=C1CC[C@@H]1[C@@H]2CC[C@]2(C)C(=O)CC[C@@H]12`, the inhibition was -8.15%. Regarding `C[C@H]1OC[C@@H](C[N+](C)(C)C)O1`, the inhibition was -0.65%. As for `CC(O)C(C)OC(=O)[C@@H]1C[C@@H]2c3cccc4c3c(cn4C(C)C)C[C@H]2N(C)C1` (some centres not stated), the figure is 4.46%; as for `C[N+]1(C)C2CCC1CC(OC(=O)c1c[nH]c3ccccc13)C2` (configuration not stated), 9.66%.

As for `c1ccc2sc(C3(N4CCCCC4)CCCCC3)cc2c1`, the inhibition was determined as 42.9%. As for `C[C@]12CCC3C(CC[C@H]4C[C@H](O)CC[C@]34C)C1CC[C@@H]2C(=O)CO` (some centres not stated), the figure is -2.53%. In the case of `COc1ccc(OC)c(C(O)C(C)N)c1` (configuration not stated), the inhibition was found to be 9.06%.

Take `CC(C)CC(NP(=O)(O)O[C@@H]1O[C@@H](C)[C@H](O)[C@@H](O)[C@H]1O)C(=O)NC(Cc1c[nH]c2ccccc12)C(=O)O` (some centres not stated): the inhibition was -0.59%. For `COc1ccc(CCN)cc1O`, the inhibition was -1.14%. `CCCN1CCO[C@@H]2c3cc(O)ccc3OC[C@H]21`: the inhibition is 3.92% and 3.32%. In the case of `CC(=O)OCC1=C(C(=O)[O-])N2C(=O)[C@@H](NC(=O)CCC[C@@H](N)C(=O)[O-])[C@H]2SC1.[Zn+2]` it was 1.01%. On to `O=P1(N(CCCl)CCCl)NCCCO1` (configuration not stated), for which the inhibition is -4.84%. Regarding `O=C(O)Cc1cnc[nH]1`, the inhibition came to 2.8%.

Turning to `CN1C2CCC1CC(OC(=O)c1cc(Cl)cc(Cl)c1)C2` (configuration not stated), the inhibition was found to be 1.51%. Regarding `O=P(O)(O)C(Cl)(Cl)P(=O)(O)O`, the inhibition amounted to 2.25%. With `CC1=NN=C(c2ccc(N)cc2)c2cc3c(cc2C1)OCO3`, the inhibition stood at 2.48%. With `O=C(O)c1cc[c]([Hg][Cl])cc1`, the inhibition came to 5.03%.

On to `C[C@]12CC[C@H]3[C@@H](CCC4C[C@H](O)CC[C@@]43C)[C@@H]1CC[C@@H]2O` (some centres not stated), for which the inhibition was -6.39%. With `CC(=O)[C@H]1CC[C@H]2[C@@H]3CC[C@H]4C[C@H](O)CC[C@]4(C)[C@H]3C(=O)C[C@]12C`, the inhibition is -3.44%.

Take `CC(=O)c1c(O)c(C)c(O)c(Cc2c(O)c3c(c(C(=O)/C=C/c4ccccc4)c2O)OC(C)(C)C=C3)c1O`: the inhibition amounted to 13.2%.
